From US20120315277A1, “Compositions and Methods for the Therapy and Diagnosis of Influenza” (priority 2011, published 2012)
These are yes or no findings as the source states them, for the method shown. Some binding calls cover weakened binding; strength is not graded here.

The chains behind the UniProt entries cited, without tags or fusion partners.
UniProt P06821: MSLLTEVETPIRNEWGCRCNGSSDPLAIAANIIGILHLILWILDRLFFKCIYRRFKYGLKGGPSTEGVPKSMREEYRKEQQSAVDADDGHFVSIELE

Key:
[1] = target: M2 protein of influenza A/Puerto Rico/8/34 (H1N1) on cells (influenza A virus A/Puerto Rico/8/34 (H1N1)) (UniProt P06821); experiment: FACS on MDCK cells infected with A/Puerto Rico/8/34
[2] = target: M2 protein on influenza A/Puerto Rico/8/34 (H1N1) virus particles (influenza A virus A/Puerto Rico/8/34 (H1N1)) (UniProt P06821); experiment: ELISA on purified A/Puerto Rico/8/34 virus
[3] = target: M2 protein of influenza A/Puerto Rico/8/34 (H1N1) on cells (influenza A virus A/Puerto Rico/8/34 (H1N1)) (UniProt P06821); experiment: FACS, MDCK cells infected with A/Puerto Rico/8/34
[4] = target: M2 protein on influenza A/Puerto Rico/8/34 (H1N1) virus particles (influenza A virus A/Puerto Rico/8/34 (H1N1)) (UniProt P06821); experiment: ELISA on purified virus (FIG. 14a)
[5] = target: M2 protein on influenza A/Puerto Rico/8/34 (H1N1) virus particles (influenza A virus A/Puerto Rico/8/34 (H1N1)) (UniProt P06821); experiment: ELISA on A/PR/8 virus, normalised to 8i10 at 10 µg/ml [D00002 FIG. 2B]
[6] = target: M2 protein of influenza A/Puerto Rico/8/34 (H1N1) on cells (influenza A virus A/Puerto Rico/8/34 (H1N1)) (UniProt P06821); experiment: FACS, transfected HEK293, 1 µg/ml [D00006 FIG. 3C-1]
[7] = target: M2 protein of influenza A/Puerto Rico/8/34 (H1N1) on cells (influenza A virus A/Puerto Rico/8/34 (H1N1)) (UniProt P06821); experiment: FACS, transfected 293 cells, 1 µg/mL
[8] = target: M2 protein on influenza A/Puerto Rico/8/34 (H1N1) virus particles (influenza A virus A/Puerto Rico/8/34 (H1N1)) (UniProt P06821); experiment: ELISA, purified A/Puerto Rico/8/34 virus coated at 10 µg/ml
[9] = target: M2 protein of influenza A/Puerto Rico/8/34 (H1N1) on cells (influenza A virus A/Puerto Rico/8/34 (H1N1)) (UniProt P06821); experiment: FACS on infected MDCK cells
[10] = target: M2 protein of influenza A/Puerto Rico/8/34 (H1N1) on cells (influenza A virus A/Puerto Rico/8/34 (H1N1)) (UniProt P06821); experiment: FMAT images, MDCK cells infected with A/PR/8, crude supernatant
[11] = target: M2 protein of influenza A/Puerto Rico/8/34 (H1N1) on cells (influenza A virus A/Puerto Rico/8/34 (H1N1)) (UniProt P06821); experiment: FMAT on PR8-infected MDCK cells
[12] = target: M2 protein on influenza A/Puerto Rico/8/34 (H1N1) virus particles (influenza A virus A/Puerto Rico/8/34 (H1N1)) (UniProt P06821); experiment: ELISA on influenza virus, crude supernatants
[13] = target: M2 protein on influenza A/Puerto Rico/8/34 (H1N1) virus particles (influenza A virus A/Puerto Rico/8/34 (H1N1)) (UniProt P06821); experiment: ELISA on PR8 virus, crude supernatants
[14] = target: M2 protein of influenza A/Puerto Rico/8/34 (H1N1) on cells (influenza A virus A/Puerto Rico/8/34 (H1N1)) (UniProt P06821); experiment: FMAT on MDCK cells infected with A/PR/8/32 (so in the source), crude supernatant
[15] = target: M2 protein of influenza A/Puerto Rico/8/34 (H1N1) on cells (influenza A virus A/Puerto Rico/8/34 (H1N1)) (UniProt P06821); experiment: FACS on transfected 293 cells and on infected MDCK cells
[16] = target: M2 protein on influenza A/Puerto Rico/8/34 (H1N1) virus particles (influenza A virus A/Puerto Rico/8/34 (H1N1)) (UniProt P06821); experiment: ELISA on PR8 virus, crude supernatant

Measured: binding

B1: 8I10 (antibody, V domains shown)
VH: QVQLQESGPGLVKPSETLSLTCTVSGSSISNYYWSWIRQSPGKGLEWIGFIYYGGNTKYNPSLKSRVTISQDTSKSQVSLTMSSVTAAESAVYFCARASCSGGYCILDYWGQGTLVTVS
VL: DIQMTQSPSSLSASVGDRVTITCRASQNIYKYLNWYQQRPGKAPKGLISAASGLQSGVPSRFSGSGSGTDFTLTITSLQPEDFATYYCQQSYSPPLTFGGGTRVEIK
binds: [1] | [2] | [3] | [4] | [5] | [6] | [7] | [8] | [9] | [10] | [11] | [12] | [13] | [14] | [15] | [16]

B2: 21B15 (antibody, V domains shown)
VH: QVQLQESGPGLVKPSETLSLTCTVSGSSISNYYWSWIRQSPGKGLEWIGFIYYGGNTKYNPSLKSRVTISQDTSKSQVSLTMSSVTAAESAVYFCARASCSGGYCILDYWGQGTLVTVS
VL: DIQVTQSPSSLSASVGDRVTITCRASQNIYKYLNWYQQRPGKAPKGLISAASGLQSGVPSRFSGSGSGTDFTLTITSLQPEDFATYYCQQSYSPPLTFGGGTRVDIK
binds: [10] | [11] | [12] | [13] | [14] | [16]
